# Reference: publication PMC7048395
# Chains of the proteins cited; added tags and fusions are not shown. Lines headed by an entry give the natural chain unless they say otherwise; changes in a name come on top.
# UniProt P0C0S5: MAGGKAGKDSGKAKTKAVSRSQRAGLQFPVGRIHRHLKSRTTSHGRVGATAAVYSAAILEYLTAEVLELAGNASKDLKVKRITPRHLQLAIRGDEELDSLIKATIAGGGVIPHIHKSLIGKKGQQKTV
# Results are given in words; binding and its absence hold for the method and conditions named. In cells and extracts the contact can be indirect. Some results given as binding are weak or reduced against the parent protein; the word gives no strength.
# B1: PHF14 (endogenous, U2OS) (protein, UniProt O94880 1-948)
# chain: MDRSSKRRQVKPLAASLLEALDYDSSDDSDFKVGDASDSEGSGNGSEDASKDSGEGSCSDSEENILEEELNEDIKVKEEQLKNSAEEEVLSSEKQLIKMEKKEEEENGERPRKKKEKEKEKEKEKEKEKEREKEKEKATVSENVAASAAATTPATSPPAVNTSPSVPTTTTATEEQVSEPKKWNLRRNRPLLDFVSMEELNDMDDYDSEDDNDWRPTVVKRKGRSASQKEGSDGDNEDDEDEGSGSDEDENDEGNDEDHSSPASEGGCKKKKSKVLSRNSADDEELTNDSLTLSQSKSNEDSLILEKSQNWSSQKMDHILICCVCLGDNSEDADEIIQCDNCGITVHEGCYGVDGESDSIMSSASENSTEPWFCDACKCGVSPSCELCPNQDGIFKETDAGRWVHIVCALYVPGVAFGDIDKLRPVTLTEMNYSKYGAKECSFCEDPRFARTGVCISCDAGMCRAYFHVTCAQKEGLLSEAAAEEDIADPFFAYCKQHADRLDRKWKRKNYLALQSYCKMSLQEREKQLSPEAQARINARLQQYRAKAELARSTRPQAWVPREKLPRPLTSSASAIRKLMRKAELMGISTDIFPVDNSDTSSSVDGRRKHKQPALTADFVNYYFERNMRMIQIQENMAEQKNIKDKLENEQEKLHVEYNKLCESLEELQNLNGKLRSEGQGIWALLGRITGQKLNIPAILRAPKERKPSKKEGGTQKTSTLPAVLYSCGICKKNHDQHLLLLCDTCKLHYHLGCLDPPLTRMPRKTKNSYWQCSECDQAGSSDMEADMAMETLPDGTKRSRRQIKEPVKFVPQDVPPEPKKIPIRNTRTRGRKRSFVPEEEKHEERVPRERRQRQSVLQKKPKAEDLRTECATCKGTGDNENLVRCDECRLCYHFGCLDPPLKKSPKQTGYGWICQECDSSSSKEDENEAERKNISQELNMEQKNPKK
# Target: endogenous H2A.Z.1 tagged with 3xFlag-2xStrep (U2OS) (human (endogenous in U2OS)) (UniProt P0C0S5)
# Test: co-IP; soluble nuclear extracts of U2OS cells expressing tagged H2A.Z.1, tagged H2A.Z.2 or no tag; anti-Flag resin followed by Flag peptide elution; amount of cells adapted to similar amounts of precipitated H2A.Z isoform; western blot of the Flag-eluted proteins
binder,measurement,value
B1,binding,binds
